For the assay, the system named is L1210 leukemia ip in BDF1 mice, survival T/C. As to the kind of experiment: NCI In Vivo Anticancer Drug Screen. Data for tumor model L1210 Leukemia (intraperitoneal) in B6D2F1 (BDF1) mice. The note with it: T/C endpoint: mean survival time, higher T/C = longer survival.
Setting [1] is: dose: 50.0 mg/kg/injection, schedule: Q01DX009 (ip), vehicle: saline.
Where [2] appears, read: dose: 200.0 mg/kg/injection, schedule: Q01DX009 (ip), vehicle: saline.
Setting [3] is: dose: 400.0 mg/kg/injection, schedule: Q01DX009 (ip), vehicle: saline with Tween-80.
Where [4] appears, read: dose: 100.0 mg/kg/injection, schedule: Q01DX001 (ip), vehicle: carboxymethylcellulose (CMC).
[5] abbreviates: dose: 200.0 mg/kg/injection, schedule: Q01DX001 (ip), vehicle: carboxymethylcellulose (CMC).
[6] abbreviates: dose: 400.0 mg/kg/injection, schedule: Q01DX001 (ip), vehicle: carboxymethylcellulose (CMC).
Setting [7] is: dose: 400.0 mg/kg/injection, schedule: Q04DX003 (ip), vehicle: Klucel (hydroxypropylcellulose) (HPC).
Setting [8] is: dose: 100.0 mg/kg/injection, schedule: Q04DX003 (ip), vehicle: saline with Tween-80.
Where [9] appears, read: dose: 400.0 mg/kg/injection, schedule: Q04DX003 (ip), vehicle: saline.
Where [10] appears, read: dose: 200.0 mg/kg/injection, schedule: Q01DX001 (ip), vehicle: saline.
Setting [11] is: dose: 400.0 mg/kg/injection, schedule: Q01DX001 (ip), vehicle: saline.
[12] abbreviates: dose: 300.0 mg/kg/injection, schedule: Q01DX001 (ip), vehicle: saline.

The record followed here is PubChem BioAssay AID248 (DTP/NCI, 2004).

The list does not hold the whole screen: it is rich in T/C values a quarter to a half above the control, in often repeated tests (any T/C) and in doses without a T/C. Further doses and runs are listed elsewhere. T/C gives the treated animals as a percentage of the vehicle group. Some entries give survivors of the animals treated and no T/C: the source holds a T/C of zero for them, seemingly a mark for toxic or unscored doses. Some survivor counts are full or nearly so, which does not show that the dose was tolerated: the source hardly ever lists a survival T/C far under the control, and the zero likely stands for such cases as well. Counts of survivors are from the toxicity check (mostly the fifth day) where no day follows; animals may have died later. Schedule codes are those of the source, read here as Q, the interval in days (D) or hours (H), X, the number of doses. Some schedules carry Z or #; the key to these is not given. Some entries hold several experiments; the values are given in rising order. Where survival is the endpoint, the PubChem record calls one and a half times the control and up active, and a quarter to a half above the control has no call in these data; cut-offs in other NCI protocols can differ.

Take `O=C(N[C@@H](c1ccccc1)[C@H](N=Cc1ccccc1)c1ccccc1)c1ccccc1`: the survivor count under setting [1] is recorded as 6 of 6; the survivor count under setting [2] was 6 of 6; the survivor count (dose: 200.0 mg/kg/injection, schedule: Q04DX003 (ip), vehicle: saline) is recorded as 6 of 6.

Consider `COC(=O)c1ccc(OC(=O)Nc2ccccc2F)cc1`, for which the survivor count is 2 of 6 (dose: 200.0 mg/kg/injection, schedule: Q01DX009 (ip), vehicle: saline with Tween-80) and 0 of 6 under setting [3].

In the case of `CCCCCCN(CCCCCC)CC(=O)NCCCN1CCN(CCCNC(=O)CN(CCCCCC)CCCCCC)CC1`, the T/C (dose: 50.0 mg/kg/injection, schedule: Q01DX001 (ip), vehicle: carboxymethylcellulose (CMC)) was 127 % of control. Also, the survivor count by setting is: (dose: 75.0 mg/kg/injection, schedule: Q01DX001 (ip), vehicle: carboxymethylcellulose (CMC)) 1 of 6 and 2 of 4; under setting [4], 0 of 4; under setting [5], 0 of 4; under setting [6], 0 of 4.

Turning to `CS(=O)(=O)OCCC(=O)NCNC(=O)CCOS(C)(=O)=O`, the T/C (dose: 12.3 mg/kg/injection, schedule: Q01DX Z (ip), vehicle: carboxymethylcellulose (CMC)) was 129 % of control; the T/C (dose: 16.0 mg/kg/injection, schedule: Q01DX Z (ip), vehicle: carboxymethylcellulose (CMC)) was 125 % of control; the T/C (dose: 24.0 mg/kg/injection, schedule: Q01DX Z (ip), vehicle: carboxymethylcellulose (CMC)) was 136 % of control; the T/C (dose: 28.0 mg/kg/injection, schedule: Q01DX Z (ip), vehicle: carboxymethylcellulose (CMC)) was 148 % of control; the T/C (dose: 36.0 mg/kg/injection, schedule: Q01DX Z (ip), vehicle: carboxymethylcellulose (CMC)) was 141 and 145 % of control; the T/C (dose: 42.0 mg/kg/injection, schedule: Q01DX Z (ip), vehicle: carboxymethylcellulose (CMC)) was 136 % of control. Besides, the T/C is, setting by setting: (dose: 54.0 mg/kg/injection, schedule: Q01DX Z (ip), vehicle: carboxymethylcellulose (CMC)) 125 % of control; (dose: 61.0 mg/kg/injection, schedule: Q01DX Z (ip), vehicle: carboxymethylcellulose (CMC)) 134 % of control; (dose: 63.0 mg/kg/injection, schedule: Q01DX Z (ip), vehicle: carboxymethylcellulose (CMC)) 140 % of control. Further, the survivor count is given as 6 of 6 (dose: 120.0 mg/kg/injection, schedule: Q01DX Z (ip), vehicle: carboxymethylcellulose (CMC)); 5 of 6 (dose: 135.0 mg/kg/injection, schedule: Q01DX Z (ip), vehicle: carboxymethylcellulose (CMC)); 3 of 6 (dose: 180.0 mg/kg/injection, schedule: Q01DX Z (ip), vehicle: carboxymethylcellulose (CMC)).

For the molecule `C=CCNC(=S)Nc1cccc(C(C)O)c1` (stereo not given), under “dose: 400.0 mg/kg/injection, schedule: Q01DX009 (ip), vehicle: saline”, the survivor count is 1 of 6.

In the case of `CCCCCC(/C=C/C1C=CC(=O)C1C/C=C/CCCC(=O)OC)OC(C)=O` (stereo not given), under setting [3], the survivor count is 2 of 6.

As to `CCCCCC(/C=N\Nc1nnc(N/N=C\C(=C\c2ccccc2)CCCCC)c2ccccc12)=C/c1ccccc1`, the survivor count (dose: 133.0 mg/kg/injection, schedule: Q01DX001 (ip), vehicle: carboxymethylcellulose (CMC)) is on record as 1 of 4. Besides, the T/C reads like this: under setting [5], 129 % of control; under setting [6], 125 % of control.

In the case of `CCCCN=C=NCCC[N+](C)(C)C`, the survivor count under setting [7] was 0 of 6.

Consider `Cc1nc(-c2ccc3ccc4cccnc4c3n2)no1`, for which, under setting [8], the survivor count is 1 of 4.

For the molecule `O=C(Nc1ccc(C(=O)O)cc1)Nc1cc(C(F)(F)F)ccc1Cl`, where the note is “dose: 400.0 mg/kg/injection, schedule: Q01DX009 (ip), vehicle: carboxymethylcellulose (CMC)”, the survivor count is given as 3 of 3.

Consider `CC(C)(C)NCc1cc(C(C)(C)C)cc(-c2ccccc2)c1O`, for which the survivor count under setting [9] is 2 of 6.

Regarding `C[P+](Cc1ccc([N+](=O)[O-])cc1)(c1ccccc1)c1ccccc1`, the survivor count runs as follows: (dose: 50.0 mg/kg/injection, schedule: Q01DX009 (ip), vehicle: Klucel (hydroxypropylcellulose) (HPC)) 5 of 6; (dose: 100.0 mg/kg/injection, schedule: Q04DX003 (ip), vehicle: Klucel (hydroxypropylcellulose) (HPC)) 1 of 6; (dose: 200.0 mg/kg/injection, schedule: Q04DX003 (ip), vehicle: Klucel (hydroxypropylcellulose) (HPC)) 0 of 6; under setting [7], 0 of 6.

For the molecule `Cc1cc(C)c2ccc(NC(=O)CCC(=O)O)nc2n1`, the survivor count runs as follows: under setting [10], 2 of 6; under setting [11], 2 of 6.

With `Cc1ccc(CCCC#N)[nH]1`, for the setting “dose: 400.0 mg/kg/injection, schedule: Q01DX001 (sc), vehicle: carboxymethylcellulose (CMC)”, the survivor count is reported as 1 of 4.

As to `Cn1cc(C=O)c2nccnc21`, the survivor count is, setting by setting: (dose: 300.0 mg/kg/injection, schedule: Q01DX009 (ip), vehicle: saline) 0 of 6; under setting [9], 0 of 6.

As to `COCC(O)C(OC)C(OC)C(C=O)NC(=O)N(CCCl)N=O` (stereo not given), the T/C is, setting by setting: (dose: 6.0 mg/kg/injection, schedule: Q01DX001 (ip), vehicle: saline with Tween-80) 134 % of control; (dose: 9.0 mg/kg/injection, schedule: Q01DX001 (ip), vehicle: saline with Tween-80) 140 % of control. In addition, the survivor count (dose: 168.0 mg/kg/injection, schedule: Q01DX001 (ip), vehicle: saline with Tween-80) is 10 of 10.

On to `On1ccc(N2CCOCC2)cc1=Nc1ccccc1`, for which the survivor count is 0 of 6 under setting [10] and 0 of 6 under setting [11].

`CCC(CC)NNC(CC)CC`: the survivor count under setting [12] is listed as 0 of 6.

Turning to `CCOc1c(Br)cc(N=Cc2ccc(N(CCCl)CCCl)c(OC)c2)cc1Br`, the T/C (dose: 66.0 mg/kg/injection, schedule: Q01DX001 (ip), vehicle: carboxymethylcellulose (CMC)) was 130 % of control; the T/C under setting [4] is 129 and 133 % of control. For the same molecule, the survivor count under setting [6] is reported as 0 of 4.

As for `CN1CCC23c4ccccc4NC1C21CCN(C)C3Nc2ccccc21`, the survivor count is on record as 0 of 6 (dose: 100.0 mg/kg/injection, schedule: Q01DX Z (ip), vehicle: saline) and 0 of 6 (dose: 400.0 mg/kg/injection, schedule: Q01DX009 (ip), vehicle: Klucel (hydroxypropylcellulose) (HPC)).

In the case of `CC(N)C(=O)c1ccccc1` (stereo not given), the survivor count under setting [2] is on record as 3 of 6.

For `CCCCCCCCCCCCCCCCCCNC(=O)c1c(Br)c(Br)cc(Br)c1C(=O)O`, for the setting “dose: 100.0 mg/kg/injection, schedule: Q04DX002 (ip), vehicle: Klucel (hydroxypropylcellulose) (HPC)”, the T/C was 131 % of control.

As to `CCOC(=O)Cc1ccccc1`, the T/C was 126 % of control under setting [8]; 139 % of control (dose: 200.0 mg/kg/injection, schedule: Q04DX003 (ip), vehicle: saline with Tween-80); 137 % of control (dose: 400.0 mg/kg/injection, schedule: Q04DX003 (ip), vehicle: saline with Tween-80).

Turning to `CN1CCN(CCC=C2c3ccccc3Sc3ccc(S(=O)(=O)N(C)C)cc32)CC1`, the survivor count was 6 of 6 (dose: 25.0 mg/kg/injection, schedule: Q01DX009 (ip), vehicle: saline); 6 of 6 under setting [1]; 2 of 6 (dose: 100.0 mg/kg/injection, schedule: Q01DX009 (ip), vehicle: saline); 1 of 6 under setting [2]; 4 of 4 under setting [9].

As for `N/N=C\C=N\N`, the survivor count (dose: 120.0 mg/kg/injection, schedule: Q01DX Z (ip), vehicle: saline) is reported as 0 of 6.

Turning to `O=C1C=C/C(=N/c2ccc(O)o2)c2ccccc21`, the survivor count runs as follows: (dose: 75.0 mg/kg/injection, schedule: Q01DX001 (ip), vehicle: saline) 3 of 6; under setting [12], 1 of 6.

Turning to `C1COC(CNCC2CCCO2)C1` (stereo not given), the survivor count under setting [11] is reported as 1 of 4.
